Values from PubChem BioAssay AID1259308 (NCATS, 2017).

Purpose: 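Candidate targets for better recombinant protein yield in mammalian cells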 (primary screen)
System: human HEK293 embryonic kidney cells stably expressing firefly luciferase (HEK-CMV-Luc2-Hygro)
Reagent: single siRNA against human genes, 0.8 pmol siRNA per well
Time to read-out: 72 h
Measurement: 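Luciferase light (ONE-Glo) measured on one replicate plate set and viability (CellTiter-Glo) on the other, scaled to a negative control siRNA, with robust z-scores and luciferase per cell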
Scale: total luciferase, z-score and total luciferase, % of control: higher = more reporter protein produced
Rule for the call: 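Active when the median/MAD z-score for overall luciferase is greater than 3; a gene was taken forward for validation with new siRNAs if at least two of its three siRNAs passed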
Meaning of the calls: active = raised luciferase; inactive = no rise
The whole screen tested about 59,000 reagents; this is a part drawn at random. About 1,510 of all reagents (2.6%) count as active. 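Calls use total luciferase alone and ignore viability, so some active siRNAs may act by altering cell number.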 Entries without a mark were called inactive. Reagents against one gene are numbered here. Further read-outs or replicates are left out here. No sequences are given here.

| gene symbol | siRNA no. | total luciferase, z-score | total luciferase, % of control |
| --- | --- | --- | --- |
| UPP2 (uridine phosphorylase 2) | 1 | -0.706 | 67.8 |
| UPP2 (uridine phosphorylase 2) | 2 | -0.306 | 75.8 |
| UPP2 (uridine phosphorylase 2) | 3 | -0.85 | 65 |
| SFTPD (surfactant protein D) | 1 | -0.954 | 62.9 |
| SFTPD (surfactant protein D) | 2 | -0.833 | 65.3 |
| SFTPD (surfactant protein D) | 3 | -1.72 | 47.8 |
| NOP16 (NOP16 nucleolar protein) | 1 | -2.03 | 41.6 |
| NOP16 (NOP16 nucleolar protein) | 2 | -0.495 | 72 |
| NOP16 (NOP16 nucleolar protein) | 3 | -1.36 | 54.8 |
| PRL (prolactin) | 1 | 1.19 | 106 |
| PRL (prolactin) | 2 | -0.637 | 69.2 |
| PRL (prolactin) | 3 | 2.03 | 122 |
| CRNKL1 (crooked neck pre-mRNA splicing factor 1) | 1 | -0.539 | 71.2 |
| CRNKL1 (crooked neck pre-mRNA splicing factor 1) | 2 | 1.09 | 104 |
| CRNKL1 (crooked neck pre-mRNA splicing factor 1) | 3 | 0.173 | 85.3 |
| KRT73 (keratin 73) | 1 | 1.41 | 110 |
| KRT73 (keratin 73) | 2 | -0.684 | 68.3 |
| KRT73 (keratin 73) | 3 | 0.122 | 84.3 |
| CLASRP (CLK4 associating serine/arginine rich protein) | 1 | -2.86 | 25 |
| CLASRP (CLK4 associating serine/arginine rich protein) | 2 | 0.558 | 93 |
| CLASRP (CLK4 associating serine/arginine rich protein) | 3 | -1.47 | 52.7 |
| DLX1 (distal-less homeobox 1) | 1 | 1.92 | 120 |
| DLX1 (distal-less homeobox 1) | 2 | -0.728 | 67.4 |
| DLX1 (distal-less homeobox 1) | 3 | 0.444 | 90.7 |
| OPA3 (outer mitochondrial membrane lipid metabolism regulator OPA3) | 1 | 0.462 | 91.1 |
| OPA3 (outer mitochondrial membrane lipid metabolism regulator OPA3) | 2 | 2.01 | 122 |
| OPA3 (outer mitochondrial membrane lipid metabolism regulator OPA3) | 3 | 0.561 | 93 |
| ATP6V0D2 (ATPase H+ transporting V0 subunit d2) | 1 | 1.42 | 110 |
| ATP6V0D2 (ATPase H+ transporting V0 subunit d2) | 2 | 0.0869 | 83.6 |
| ATP6V0D2 (ATPase H+ transporting V0 subunit d2) | 3 | 0.676 | 95.3 |
| HIF3A (hypoxia inducible factor 3 subunit alpha) | 1 | -1.75 | 47.1 |
| HIF3A (hypoxia inducible factor 3 subunit alpha) | 2 | 0.317 | 88.2 |
| HIF3A (hypoxia inducible factor 3 subunit alpha) | 3 | 0.969 | 101 |
| SYCP2 (synaptonemal complex protein 2) | 1 | 0.142 | 84.7 |
| SYCP2 (synaptonemal complex protein 2) | 2 | 0.372 | 89.3 |
| SYCP2 (synaptonemal complex protein 2) | 3 | 0.417 | 90.2 |
| ST8SIA6 (ST8 alpha-N-acetyl-neuraminide alpha-2,8-sialyltransferase 6) | 1 | -0.302 | 75.9 |
| ST8SIA6 (ST8 alpha-N-acetyl-neuraminide alpha-2,8-sialyltransferase 6) | 2 | 0.226 | 86.4 |
| ST8SIA6 (ST8 alpha-N-acetyl-neuraminide alpha-2,8-sialyltransferase 6) | 3 | 3.37 (active) | 149 |
| NR1H3 (nuclear receptor subfamily 1 group H member 3) | 1 | -1.02 | 61.6 |
| NR1H3 (nuclear receptor subfamily 1 group H member 3) | 2 | 2.46 | 131 |
| NR1H3 (nuclear receptor subfamily 1 group H member 3) | 3 | -0.284 | 76.2 |
| SFT2D3 (SFT2 domain containing 3) | 1 | 2.85 | 139 |
| SFT2D3 (SFT2 domain containing 3) | 2 | 0.564 | 93.1 |
| SFT2D3 (SFT2 domain containing 3) | 3 | -0.351 | 74.9 |
| DCAF13 (DDB1 and CUL4 associated factor 13) | 1 | -2.06 | 40.8 |
| DCAF13 (DDB1 and CUL4 associated factor 13) | 2 | 0.327 | 88.4 |
| DCAF13 (DDB1 and CUL4 associated factor 13) | 3 | -2.02 | 41.8 |
| TECRL (trans-2,3-enoyl-CoA reductase like) | 1 | -1.23 | 57.5 |
| TECRL (trans-2,3-enoyl-CoA reductase like) | 2 | -0.948 | 63 |
| TECRL (trans-2,3-enoyl-CoA reductase like) | 3 | 1.63 | 114 |
| NLRP11 (NLR family pyrin domain containing 11) | 1 | 0.562 | 93.1 |
| NLRP11 (NLR family pyrin domain containing 11) | 2 | 0.61 | 94 |
| NLRP11 (NLR family pyrin domain containing 11) | 3 | 1.6 | 114 |
| ING1 (inhibitor of growth family member 1) | 1 | -1.13 | 59.4 |
| ING1 (inhibitor of growth family member 1) | 2 | -0.947 | 63.1 |
| ING1 (inhibitor of growth family member 1) | 3 | 2.22 | 126 |

A run of entries of the results above, as a working copy:
| gene symbol | siRNA no. | total luciferase, z-score | total luciferase, % of control |
| --- | --- | --- | --- |
| PRL (prolactin) | 1 | 1.19 | 106 |
| PRL (prolactin) | 2 | -0.637 | 69.2 |
| PRL (prolactin) | 3 | 2.03 | 122 |
| CRNKL1 (crooked neck pre-mRNA splicing factor 1) | 1 | -0.539 | 71.2 |
| CRNKL1 (crooked neck pre-mRNA splicing factor 1) | 2 | 1.09 | 104 |
| CRNKL1 (crooked neck pre-mRNA splicing factor 1) | 3 | 0.173 | 85.3 |
| KRT73 (keratin 73) | 1 | 1.41 | 110 |
